No constants are given. Whether binding was seen depends on the method and setting. Binding seen in cells or lysates may run through a third protein. A yes stands for co-enrichment or nearness to the bait. Other partners may have been found.
Biological target: MAPK6-GFP (pMAPK6:MAPK6-GFP) (rice (Oryza sativa L. ssp japonica cultivar 9522)) (UniProt Q84UI5)
Experiment: affinity purification with mass spectrometry; MAPK6-GFP precipitated with anti-GFP beads from extract of 7 d roots (20 mM Tris-HCl pH 7.5, 150 mM NaCl, 1 mM EDTA, 0.5% Triton X-100; 4 °C, 2 h); excised gel bands analysed by MS; WT plants as control

By UniProt entry, the sequences of proteins in these tests, tags left out. Where a name states a change or a piece, a line headed by the entry shows the natural chain unless it says otherwise.
UniProt Q84UI5: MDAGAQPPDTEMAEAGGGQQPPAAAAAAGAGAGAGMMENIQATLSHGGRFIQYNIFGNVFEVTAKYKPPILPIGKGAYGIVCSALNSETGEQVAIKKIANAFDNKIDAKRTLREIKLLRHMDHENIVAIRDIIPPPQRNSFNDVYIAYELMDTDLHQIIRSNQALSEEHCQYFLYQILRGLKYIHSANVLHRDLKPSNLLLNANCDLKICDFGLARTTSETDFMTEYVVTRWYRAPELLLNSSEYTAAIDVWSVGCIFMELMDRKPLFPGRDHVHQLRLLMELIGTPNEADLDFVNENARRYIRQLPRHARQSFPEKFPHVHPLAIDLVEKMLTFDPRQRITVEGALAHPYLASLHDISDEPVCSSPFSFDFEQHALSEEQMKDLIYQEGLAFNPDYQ
UniProt Q6Z339: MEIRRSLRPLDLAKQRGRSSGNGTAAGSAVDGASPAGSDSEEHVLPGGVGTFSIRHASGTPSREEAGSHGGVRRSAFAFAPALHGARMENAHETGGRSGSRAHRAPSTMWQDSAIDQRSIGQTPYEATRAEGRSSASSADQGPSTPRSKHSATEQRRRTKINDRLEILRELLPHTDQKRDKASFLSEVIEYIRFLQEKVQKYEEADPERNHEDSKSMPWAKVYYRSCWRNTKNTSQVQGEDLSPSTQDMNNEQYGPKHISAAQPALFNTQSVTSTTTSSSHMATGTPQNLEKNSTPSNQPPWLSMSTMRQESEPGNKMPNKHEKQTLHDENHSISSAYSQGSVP
UniProt Q6K4Q0: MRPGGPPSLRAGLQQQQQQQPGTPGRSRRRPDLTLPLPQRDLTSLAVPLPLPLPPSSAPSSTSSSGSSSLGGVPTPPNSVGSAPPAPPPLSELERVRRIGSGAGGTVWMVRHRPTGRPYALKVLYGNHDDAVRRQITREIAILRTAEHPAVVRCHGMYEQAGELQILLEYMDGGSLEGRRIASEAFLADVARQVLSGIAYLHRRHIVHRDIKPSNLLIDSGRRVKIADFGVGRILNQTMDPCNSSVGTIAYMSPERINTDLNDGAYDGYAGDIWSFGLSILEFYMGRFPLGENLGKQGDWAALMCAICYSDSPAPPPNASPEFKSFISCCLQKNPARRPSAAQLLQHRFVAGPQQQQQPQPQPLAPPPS

binding | Substance
binds | BIM2 (BES1-interacting Myc-like2) (from UniProt Q6Z339)
binds | MKK4 (from UniProt Q6K4Q0)
